MIC data for one compound are collected here from PMC8467575, “Bacterial-Specific Aggregation and Killing of Immunomodulatory Host Defense Peptides” (Pharmaceuticals, 2021).

Test [1] concerns Escherichia coli ATCC 25922. Description: microbe, parasite or virus in culture. Type of test: cell-based. Conditions: ATCC25922, early log phase, nutrient broth 37 °C, 4–6 h, colony count on blood agar. On the procedure: (§1) E. coli, S. aureus, and S. enterica were cultured in nutrient broth at 37 °C. Listeria was cultured in brain heart infusion broth at 37 °C. Bacteria at early log phase (OD600 ≈ 0.1) were incubated with the peptides at different concentrations (100–3.12 µM) for 4–6 h. After the incubation period, the bacterial culture medium was diluted at different ratios (1 in 2000–2,000,000) in sterile PBS and was spread on blood agar (BA) plates. BA plates were incubated at 37 °C for 24 h, and the number of colonies formed was counted to determine cell viability.

In test [2] the test system is Staphylococcus aureus ATCC 25923. Briefly: microbe, parasite or virus in culture. Type of test: cell-based. To be noted: ATCC25923, early log phase, nutrient broth 37 °C, 4–6 h, colony count on blood agar, read-out: MIC S. aureus. On the procedure:
as §1

Values after ≈ are worked out from the molar mass of the structure shown.

For `CC1(C)S[C@@H]2[C@H](NC(=O)[C@H](N)c3ccccc3)C(=O)N2[C@H]1C(=O)O` [Ampicillin, reference compound], the MIC in test [1] amounted to 26.9 µM (≈ 9.4 µg/mL); in test [2] it was 6.7 µM (≈ 2.34 µg/mL).
